Results on 20 compounds are retold here after PubChem BioAssay AID330 (DTP/NCI, 2004).

The subject of the assay is P388 leukemia ip, CD2F1 mice, survival T/C. In words: NCI In Vivo Anticancer Drug Screen. Data for tumor model P388 Leukemia (intraperitoneal) in CD2F1 (CDF1) mice. As to conditions: T/C endpoint: median survival time, higher T/C = longer survival.
[1] abbreviates: dose: 200.0 mg/kg/injection, schedule: Q01DX005 (ip), vehicle: Klucel (hydroxypropylcellulose) (HPC).
Setting [2] is: dose: 50.0 mg/kg/injection, schedule: Q01DX005 (ip), vehicle: saline with Tween-80.
The mark [3] stands for this setting: dose: 100.0 mg/kg/injection, schedule: Q01DX005 (ip), vehicle: saline with Tween-80.
Where [4] appears, read: dose: 200.0 mg/kg/injection, schedule: Q01DX005 (ip), vehicle: saline with Tween-80.
Where [5] appears, read: dose: 100.0 mg/kg/injection, schedule: Q01DX009 (ip), vehicle: Klucel (hydroxypropylcellulose) (HPC).
Where [6] appears, read: dose: 50.0 mg/kg/injection, schedule: Q04DX003 (ip), vehicle: distilled water + Tween-80.
The mark [7] stands for this setting: dose: 100.0 mg/kg/injection, schedule: Q01DX005 (ip), vehicle: Klucel (hydroxypropylcellulose) (HPC).
Where [8] appears, read: dose: 100.0 mg/kg/injection, schedule: Q04DX003 (ip), vehicle: saline with Tween-80.
Setting [9] is: dose: 200.0 mg/kg/injection, schedule: Q04DX003 (ip), vehicle: saline with Tween-80.
[10] abbreviates: dose: 400.0 mg/kg/injection, schedule: Q04DX003 (ip), vehicle: saline with Tween-80.
Setting [11] is: dose: 200.0 mg/kg/injection, schedule: Q01DX005 (ip), vehicle: saline.
[12] abbreviates: dose: 200.0 mg/kg/injection, schedule: Q01DX009 (ip), vehicle: saline with Tween-80.

The list does not hold the whole screen: it is rich in T/C values a quarter to a half above the control, in often repeated tests (any T/C) and in doses without a T/C. Further doses and runs are listed elsewhere. T/C: endpoint of the treated group in % of that of the vehicle group. Some entries give survivors of the animals treated and no T/C: the source files T/C as zero there, which appears to mark a toxic dose or a test without result, not a measured value. Some doses without a T/C left all or most animals alive at the check, yet need not have been tolerated: survival well below the control is almost never listed, so the zero probably covers shortened survival too. Counts of survivors are from the toxicity check (mostly the fifth day) where no day follows; animals may have died later. Schedule codes are those of the source, read here as Q, the interval in days (D) or hours (H), X, the number of doses. Some entries hold several experiments; the results are listed from low to high. For survival time, this PubChem deposit counts one and a half times the control or more as active, and values a quarter to a half above the control carry no call in these data; other NCI protocols may use other cut-offs. Some T/C values are followed by the survivors on the day toxicity was checked, most often the fifth; without a count, all were alive then. Additions like (4×) say how often a value occurs here.

For `CC1CCC(C(C)C)C(OC(=O)c2cc[n+](C)cc2)C1` (stereo not drawn), under setting [1], the survivor count is 0 of 6.
As for `CC(=O)NCCc1nc(-c2nc(C(=O)NCCC[S+](C)C)cs2)cs1`, the survivor count reads like this: (dose: 12.5 mg/kg/injection, schedule: Q01DX005 (ip), vehicle: saline with Tween-80) 6 of 6; under setting [2], 1 of 6; under setting [3], 0 of 6; under setting [4], 0 of 6.
With `CCN(CC)CCSc1nnc(-c2cc(OC)c(OC)c(OC)c2)o1`, the survivor count (dose: 200.0 mg/kg/injection, schedule: Q04DX003 (ip), vehicle: water) is 0 of 6.
Take `COc1ccc(-c2nc(SCC(=O)O)n(-c3ccccn3)c2-c2ccc(OC)cc2)cc1`: the survivor count (dose: 400.0 mg/kg/injection, schedule: Q01DX001 (ip), vehicle: water) is listed as 4 of 6.
Turning to `O=C1NC(c2cccc3ccccc23)Nc2ccc(Cl)cc21` (stereo not drawn), the T/C under setting [5] is 141 % of control.
In the case of `Cc1c2cc[n+](CCCCCCCC[n+]3ccc4c(C)c5[nH]c6ccccc6c5cc4c3C)c(C)c2cc2c1[nH]c1ccccc12`, under setting [6], the T/C was 128 and 133 % of control. For the same compound, the survivor count by setting is: under setting [6], 3 of 6; (dose: 100.0 mg/kg/injection, schedule: Q04DX003 (ip), vehicle: distilled water + Tween-80) 1 of 6 and 3 of 6; (dose: 200.0 mg/kg/injection, schedule: Q04DX003 (ip), vehicle: distilled water + Tween-80) 5 of 6; (dose: 400.0 mg/kg/injection, schedule: Q04DX003 (ip), vehicle: distilled water + Tween-80) 2 of 6.
On to `C/C(=N\Nc1ccc2ccccc2n1)c1ccccn1`, for which the survivor count reads like this: under setting [7], 1 of 6; under setting [1], 1 of 6.
Turning to `CN1CCN(c2ccc3nc(-c4ccc5nc(-c6ccc(O)cc6)[nH]c5c4)[nH]c3c2)CC1`, the T/C reads like this: (dose: 25.0 mg/kg/injection, schedule: Q01DX009 (ip), vehicle: saline) 135 % of control; (dose: 30.0 mg/kg/injection, schedule: Q01DX009 (ip), vehicle: saline, evaluated on day 30) 144 and 149 % of control; (dose: 30.0 mg/kg/injection, schedule: Q01DX009 (ip), vehicle: saline, evaluated on day 45) 148, 153, 158, 161 % of control; (dose: 30.0 mg/kg/injection, schedule: Q01DX009 (ip), vehicle: saline, evaluated on day 60) 150 % of control; (dose: 44.0 mg/kg/injection, schedule: Q01DX009 (ip), vehicle: saline, evaluated on day 30) 148, 156, 158, 159 % of control; (dose: 44.0 mg/kg/injection, schedule: Q01DX009 (ip), vehicle: saline, evaluated on day 45) 149, 155, 156, 158, 162, 163 % of control. Also, the T/C by setting is: (dose: 44.0 mg/kg/injection, schedule: Q01DX009 (ip), vehicle: saline, evaluated on day 60) 150 and 160 % of control; (dose: 50.0 mg/kg/injection, schedule: Q01DX009 (ip), vehicle: saline) 135 % of control; (dose: 67.0 mg/kg/injection, schedule: Q01DX009 (ip), vehicle: saline, evaluated on day 30) 159, 161, 162, 163, 169 % of control; (dose: 67.0 mg/kg/injection, schedule: Q01DX009 (ip), vehicle: saline, evaluated on day 45) 146, 156, 158, 159 (2×), 161 % of control; (dose: 67.0 mg/kg/injection, schedule: Q01DX009 (ip), vehicle: saline, evaluated on day 60) 150 [7 of 9 alive], 154, 155 % of control; (dose: 100.0 mg/kg/injection, schedule: Q01DX009 (ip), vehicle: saline, evaluated on day 30) 150 (2×), 152 [9 of 10 alive], 154, 159 % of control (3×). Besides, the T/C runs as follows: (dose: 100.0 mg/kg/injection, schedule: Q01DX009 (ip), vehicle: saline, evaluated on day 45) 155, 159 (2×), 161, 166, 174 % of control; (dose: 100.0 mg/kg/injection, schedule: Q01DX009 (ip), vehicle: saline, evaluated on day 60) 156 and 158 % of control (2×); (dose: 125.0 mg/kg/injection, schedule: Q01DX009 (ip), vehicle: saline) 137 % of control [9 of 10 alive]; (dose: 150.0 mg/kg/injection, schedule: Q01DX009 (ip), vehicle: saline, evaluated on day 30) 95, 100, 105, 148, 165 % of control; (dose: 150.0 mg/kg/injection, schedule: Q01DX009 (ip), vehicle: saline, evaluated on day 45) 104, 125, 151, 155, 183 % of control; (dose: 150.0 mg/kg/injection, schedule: Q01DX009 (ip), vehicle: saline, evaluated on day 60) 140 [8 of 9 alive], 141, 171 % of control. Besides, the survivor count (dose: 200.0 mg/kg/injection, schedule: Q01DX009 (ip), vehicle: saline) was 4 of 6 and 6 of 6.
Consider `NC(=O)CCSC1=CC(=O)c2ccccc2C1=O`, for which the survivor count is, setting by setting: (dose: 25.0 mg/kg/injection, schedule: Q04DX003 (ip), vehicle: saline with Tween-80) 0 of 6; (dose: 50.0 mg/kg/injection, schedule: Q04DX003 (ip), vehicle: saline with Tween-80) 0 of 6; under setting [8], 0 of 4; under setting [9], 0 of 4; under setting [10], 0 of 4.
`C=C=C(COC(C)=O)ON1CCCCC1`: the survivor count under setting [11] was 0 of 6.
On to `CCC(CNc1cc(OC)cc2cccnc12)NC1CCCCC1` (stereo not drawn), for which the survivor count was 0 of 5 (dose: 100.0 mg/kg/injection, schedule: Q01DX005 (ip), vehicle: saline) and 0 of 5 under setting [11].
Consider `CSC(=N/O)/C(=N\O)SC`, for which the survivor count under setting [5] is reported as 5 of 6.
Turning to `CN(C)C1CCc2[nH]c3c(F)cc(F)cc3c2C1` (stereo not drawn), the survivor count was 3 of 6 (dose: 100.0 mg/kg/injection, schedule: Q01DX009 (ip), vehicle: saline with Tween-80) and 1 of 6 under setting [12].
For the compound `CC1=C[P+](c2ccccc2)(c2ccccc2)c2ccccc2O1`, the survivor count is, setting by setting: (dose: 12.5 mg/kg/injection, schedule: Q01DX005 (ip), vehicle: Klucel (hydroxypropylcellulose) (HPC)) 5 of 5; (dose: 25.0 mg/kg/injection, schedule: Q01DX005 (ip), vehicle: Klucel (hydroxypropylcellulose) (HPC)) 3 of 5; (dose: 50.0 mg/kg/injection, schedule: Q01DX005 (ip), vehicle: Klucel (hydroxypropylcellulose) (HPC)) 2 of 5; under setting [7], 0 of 5; under setting [1], 0 of 5.
Regarding `O=C(O)c1cc2ccccc2c(Br)c1O.O=[N+]([O-])C1CCC(O)C2[N-]CCCC21.[Cu+]`, the survivor count runs as follows: (dose: 25.0 mg/kg/injection, schedule: Q01DX005 (ip), vehicle: saline with Tween-80) 3 of 6; under setting [2], 4 of 6; under setting [3], 0 of 6, 1 of 6, 2 of 6; under setting [4], 0 of 6. The T/C under setting [2] was 103, 107 [5 of 6 alive], 123 % of control.
On to `COc1cc2c(C)c[n+]3cc4cc5c(OC)c(OC)ccc5cc4cc3c2cc1OC` (tested in a mixture with another compound), for which, under setting [6], the survivor count is on record as 1 of 6.
As for `C#CCOc1ccccc1C(=O)NNc1ccc([N+](=O)[O-])cc1[N+](=O)[O-]`, the survivor count under setting [12] is on record as 6 of 6.
With `CCN(CC)CCCC(C)NC1CCCc2cc3c(cc21)C(=O)c1ccccc1C3=O` (stereo not drawn), the survivor count is reported as 0 of 6 under setting [8], 0 of 6 under setting [9] and 0 of 6 under setting [10].
Regarding `COC(=O)CN1C(=O)c2cccc3cc(N)cc(c23)C1=O`, the survivor count under setting [2] is listed as 6 of 6 and the survivor count under setting [4] is 6 of 6.
As to `CCC(c1ccc(OCC(=O)N/N=C2/CCC3C4CCc5cc(O)ccc5C4CCC23C)cc1)C(CC)c1ccc(OCC(=O)N/N=C2\CCC3C4CCc5cc(O)ccc5C4CCC23C)cc1` (stereo not drawn), for the setting “dose: 100.0 mg/kg/injection, schedule: Q01DX001 (ip), vehicle: Klucel (hydroxypropylcellulose) (HPC)”, the survivor count is reported as 6 of 6.
